{
  "sequences": {"note": "Chains of the proteins cited; added tags and fusions are not shown. Lines headed by an entry give the natural chain unless they say otherwise; changes in a name come on top.", "UniProt P06756": "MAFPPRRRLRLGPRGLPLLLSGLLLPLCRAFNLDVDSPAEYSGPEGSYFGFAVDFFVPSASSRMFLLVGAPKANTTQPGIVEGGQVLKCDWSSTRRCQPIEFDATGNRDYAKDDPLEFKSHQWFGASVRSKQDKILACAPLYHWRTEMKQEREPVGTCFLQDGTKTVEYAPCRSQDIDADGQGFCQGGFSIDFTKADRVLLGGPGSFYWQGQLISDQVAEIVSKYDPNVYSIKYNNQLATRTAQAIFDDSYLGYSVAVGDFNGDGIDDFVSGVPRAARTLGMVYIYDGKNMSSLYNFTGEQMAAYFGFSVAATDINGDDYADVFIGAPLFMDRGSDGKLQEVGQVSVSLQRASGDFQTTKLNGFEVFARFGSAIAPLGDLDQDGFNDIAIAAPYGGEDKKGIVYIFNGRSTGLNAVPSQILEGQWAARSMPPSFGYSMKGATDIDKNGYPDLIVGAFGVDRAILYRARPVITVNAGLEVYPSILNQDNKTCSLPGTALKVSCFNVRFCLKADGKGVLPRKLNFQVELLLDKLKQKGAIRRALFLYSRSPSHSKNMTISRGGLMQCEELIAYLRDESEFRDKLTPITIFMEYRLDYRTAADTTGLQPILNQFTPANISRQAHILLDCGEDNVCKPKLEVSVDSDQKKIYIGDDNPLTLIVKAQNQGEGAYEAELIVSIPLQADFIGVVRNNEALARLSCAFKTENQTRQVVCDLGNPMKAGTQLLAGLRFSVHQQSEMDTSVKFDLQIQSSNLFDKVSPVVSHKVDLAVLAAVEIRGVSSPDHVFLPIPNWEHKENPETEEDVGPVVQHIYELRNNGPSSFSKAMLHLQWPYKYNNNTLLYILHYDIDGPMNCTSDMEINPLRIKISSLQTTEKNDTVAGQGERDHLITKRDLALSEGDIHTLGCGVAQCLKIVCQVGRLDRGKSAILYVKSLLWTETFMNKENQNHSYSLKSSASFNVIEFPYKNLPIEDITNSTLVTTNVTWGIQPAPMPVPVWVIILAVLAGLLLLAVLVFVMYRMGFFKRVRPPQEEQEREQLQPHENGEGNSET", "UniProt P08648": "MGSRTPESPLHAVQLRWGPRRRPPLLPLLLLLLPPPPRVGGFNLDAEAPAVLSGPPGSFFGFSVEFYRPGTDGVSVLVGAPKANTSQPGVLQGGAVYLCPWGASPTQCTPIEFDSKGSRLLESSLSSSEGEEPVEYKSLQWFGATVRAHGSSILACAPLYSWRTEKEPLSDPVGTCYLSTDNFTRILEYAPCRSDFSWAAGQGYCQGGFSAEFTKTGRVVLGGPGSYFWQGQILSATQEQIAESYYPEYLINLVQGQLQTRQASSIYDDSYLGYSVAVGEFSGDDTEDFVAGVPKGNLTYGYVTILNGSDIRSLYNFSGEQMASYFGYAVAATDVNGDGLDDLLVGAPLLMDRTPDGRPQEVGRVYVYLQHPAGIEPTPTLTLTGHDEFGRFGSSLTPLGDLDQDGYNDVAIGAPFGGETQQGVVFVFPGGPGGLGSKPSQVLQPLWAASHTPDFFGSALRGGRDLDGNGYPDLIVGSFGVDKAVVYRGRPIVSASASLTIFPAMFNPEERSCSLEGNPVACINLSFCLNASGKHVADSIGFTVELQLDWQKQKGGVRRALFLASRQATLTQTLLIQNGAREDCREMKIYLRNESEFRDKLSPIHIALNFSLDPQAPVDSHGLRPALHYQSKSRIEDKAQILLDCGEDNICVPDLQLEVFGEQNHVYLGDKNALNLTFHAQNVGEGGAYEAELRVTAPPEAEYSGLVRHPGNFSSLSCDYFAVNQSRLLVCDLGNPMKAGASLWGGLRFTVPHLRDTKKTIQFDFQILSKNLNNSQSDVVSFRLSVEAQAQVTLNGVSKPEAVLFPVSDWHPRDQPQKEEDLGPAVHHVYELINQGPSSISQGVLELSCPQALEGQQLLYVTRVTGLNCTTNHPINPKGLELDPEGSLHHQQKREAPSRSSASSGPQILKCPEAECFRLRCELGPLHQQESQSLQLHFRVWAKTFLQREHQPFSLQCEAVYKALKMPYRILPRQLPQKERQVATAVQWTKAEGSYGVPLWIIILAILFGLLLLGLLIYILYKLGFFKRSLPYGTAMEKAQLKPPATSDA"},
  "source": "patent US20140010757A1",
  "about": "(Stanford University, published 2014)",
  "key": {"[1]": {"molecular_target": "αvβ5 integrin (soluble / detergent-solubilized) (UniProt P06756)", "experiment": "competition with ^125I-echistatin on plate-coated detergent-solubilized integrin"}, "[2]": {"molecular_target": "α5β1 integrin (detergent-solubilized) (UniProt P08648)", "experiment": "competition with ^125I-echistatin on plate-coated detergent-solubilized integrin"}},
  "note": "No constants are given. Whether binding was seen depends on the method and setting. Some binding calls cover weakened binding; strength is not graded here.",
  "data": [
    {"binder": "GCPQGRGDWAPTSCSQDSDCRAGCVCGPNGFCG (designed binder)", "note": "[Miniprotein 2.5D (synthetic)]", "values": [
      {"measurement": "binding", "setting": "[1]", "value": "binds"}
    ]},
    {"binder": "GCPRPRGDNPPLTCSQDSDCLAGCVCGPNGFCG (designed binder)", "note": "[Miniprotein 2.5F (synthetic)]", "values": [
      {"measurement": "binding", "setting": "[1]", "value": "binds"},
      {"measurement": "binding", "setting": "[2]", "value": "binds"}
    ]},
    {"binder": "GCVTGRGDSPASSCSQDSDCLAGCVCGPNGFCG (designed binder)", "note": "[Loop-grafted FN-RGD (synthetic RGD-miniprotein)]", "values": [
      {"measurement": "binding", "setting": "[1]", "value": "binds"}
    ]},
    {"binder": "GCTIGRGDWAPSECSQDSDCLAGCVCGPNGFCG (designed binder)", "note": "[Miniprotein 1.5B (synthetic)]", "values": [
      {"measurement": "binding", "setting": "[1]", "value": "binds"}
    ]}
  ]
}
